From patent US20110123984A1
No constants are given. Whether binding was seen depends on the method and setting. For some assays here: Binding seen in cells or lysates may run through a third protein. Some entries that bind do so weakly or less than the wild type. Where a sequence is shown, tags or fusion partners need not be part of it.

Tests used:
[1] = biological target: T1, Myc-tagged CALHM1 (human) (UniProt Q8IU99); assay: co-immunoprecipitation with immobilized anti-Myc antibody from lysates of co-transfected HEK293 cells, western blot with anti-V5
T1 sequence: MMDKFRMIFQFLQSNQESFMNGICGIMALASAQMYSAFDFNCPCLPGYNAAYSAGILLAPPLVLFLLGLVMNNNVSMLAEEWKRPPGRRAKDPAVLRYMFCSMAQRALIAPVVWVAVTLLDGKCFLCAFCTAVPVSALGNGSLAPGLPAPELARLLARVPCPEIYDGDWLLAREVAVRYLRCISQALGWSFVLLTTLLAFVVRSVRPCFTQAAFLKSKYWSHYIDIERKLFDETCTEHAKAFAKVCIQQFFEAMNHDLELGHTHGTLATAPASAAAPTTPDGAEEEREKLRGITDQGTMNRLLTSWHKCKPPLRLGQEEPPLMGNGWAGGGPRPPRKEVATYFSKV

[2] = biological target: T1, Myc-tagged CALHM1 (human); assay: non-reducing SDS-PAGE and anti-Myc western blot of lysates of Myc-CALHM1-transfected HEK293 cells

Binder	binding [1]	binding [2]
V5-tagged CALHM1 (protein, not shown: small tags and cut ends) MMDKFRMIFQFLQSNQESFMNGICGIMALASAQMYSAFDFNCPCLPGYNAAYSAGILLAPPLVLFLLGLVMNNNVSMLAEEWKRPPGRRAKDPAVLRYMFCSMAQRALIAPVVWVAVTLLDGKCFLCAFCTAVPVSALGNGSLAPGLPAPELARLLARVPCPEIYDGDWLLAREVAVRYLRCISQALGWSFVLLTTLLAFVVRSVRPCFTQAAFLKSKYWSHYIDIERKLFDETCTEHAKAFAKVCIQQFFEAMNHDLELGHTHGTLATAPASAAAPTTPDGAEEEREKLRGITDQGTMNRLLTSWHKCKPPLRLGQEEPPLMGNGWAGGGPRPPRKEVATYFSKV	binds	
Myc-tagged CALHM1 (protein, not shown: small tags and cut ends) MMDKFRMIFQFLQSNQESFMNGICGIMALASAQMYSAFDFNCPCLPGYNAAYSAGILLAPPLVLFLLGLVMNNNVSMLAEEWKRPPGRRAKDPAVLRYMFCSMAQRALIAPVVWVAVTLLDGKCFLCAFCTAVPVSALGNGSLAPGLPAPELARLLARVPCPEIYDGDWLLAREVAVRYLRCISQALGWSFVLLTTLLAFVVRSVRPCFTQAAFLKSKYWSHYIDIERKLFDETCTEHAKAFAKVCIQQFFEAMNHDLELGHTHGTLATAPASAAAPTTPDGAEEEREKLRGITDQGTMNRLLTSWHKCKPPLRLGQEEPPLMGNGWAGGGPRPPRKEVATYFSKV		binds
